Measured values published in US9456605B2, “Isoxazoline derivatives as insecticides” (Syngenta Crop Protection LLC, priority 2010, dated 2016).
Some of these results come from one statement about several compounds together. At least one structure is not confirmed: it was looked up by name or label, or the drawing left a doubt.

Columns and labels:
[1] = test system: Thrips tabaci; assay: Thrips tabaci, sprayed sunflower leaf discs; format: in vivo, Thrips tabaci (onion thrips); details: sunflower leaf discs sprayed at 200 ppm; mixed ages; 7 days incubation
[2] = test system: Heliothis virescens; assay: Heliothis virescens, eggs on artificial diet; format: in vivo, Heliothis virescens (tobacco budworm); details: 200 ppm (concentration in well 18 ppm); eggs 0-24 h old; 4 days incubation
[3] = test system: Plutella xylostella; assay: Plutella xylostella, L2 larvae on artificial diet; format: in vivo, Plutella xylostella (diamond back moth); details: 200 ppm (concentration in well 18 ppm), 6 days incubation
[4] = test system: Spodoptera littoralis; assay: Spodoptera littoralis, sprayed cotton leaf discs, L1 larvae; format: in vivo, Spodoptera littoralis (Egyptian cotton leafworm); details: cotton leaf discs sprayed at 200 ppm, 3 days after treatment
[5] = test system: Diabrotica balteata; assay: Diabrotica balteata, L2 larvae on artificial diet; format: in vivo, Diabrotica balteata (corn root worm); details: 200 ppm (concentration in well 18 ppm), 5 days incubation
[6] = test system: Spodoptera littoralis; assay: Spodoptera littoralis (systemic), compound in agar taken up by salad roots, eggs on cut leaves; format: in vivo, Spodoptera littoralis (Egyptian cotton leaf worm); details: application rate 12.5 ppm, 5 days after infestation, mortality, repellent effect, feeding behavior, growth regulation

Row | SMILES | control of Thrips tabaci [1] | control of Heliothis virescens [2] | control of Plutella xylostella [3] | control of Spodoptera littoralis [4] | control of Diabrotica balteata [5] | control of Spodoptera littoralis [6]
1 | Cc1cc(C2=CC(c3cc(Cl)cc(Cl)c3)(C(F)(F)F)ON2Cc2ccccc2)ccc1C(=O)NCc1ccccc1 (stereo not drawn) [Compound A39] | at least 80% | at least 80% | at least 80% | – | – | –
2 | CSCCNC(=O)c1ccc(C2=CC(c3cc(Cl)cc(Cl)c3)(C(F)(F)F)ON2Cc2ccccc2)cc1C (stereo not drawn) [Compound A56] | – | at least 80% | at least 80% | at least 80% | – | –
3 | Cc1cc(C2=CC(c3cc(Cl)cc(Cl)c3)(C(F)(F)F)ON2Cc2ccccc2)ccc1C(=O)NCc1ccccn1 (stereo not drawn) [Compound A46] | at least 80% | at least 80% | at least 80% | at least 80% | – | –
4 | Cc1cc(C2=CC(c3cc(Cl)cc(Cl)c3)(C(F)(F)F)ON2Cc2ccccc2)ccc1C(=O)NC1CCSC1 (stereo not drawn) [Compound A57] | at least 80% | at least 80% | at least 80% | at least 80% | at least 80% | –
5 | Cc1cc(C2=CC(c3cc(Cl)cc(Cl)c3)(C(F)(F)F)ON2Cc2ccccc2)ccc1C(=O)NCc1ccc(Cl)nc1 (stereo not drawn) [Compound A44] | – | at least 80% | at least 80% | – | – | –
6 | Cc1cc(C2=CC(c3cc(Cl)cc(Cl)c3)(C(F)(F)F)ON2Cc2ccccc2)ccc1C(=O)Nc1cccc(F)c1 (stereo not drawn) [Compound A45] | – | at least 80% | – | – | – | –
7 | Cc1cc(C2=CC(c3cc(Cl)cc(Cl)c3)(C(F)(F)F)ON2Cc2ccccc2)ccc1C(=O)NCC1CCCO1 (stereo not drawn) [Compound A38] | – | – | at least 80% | – | – | at least 80%
8 | Cc1cc(C2=CC(c3cc(Cl)cc(Cl)c3)(C(F)(F)F)ON2Cc2ccccc2)ccc1C(=O)NCc1ccccc1F (stereo not drawn) [Compound A40] | – | – | at least 80% | – | – | –
